Assay results from patent publication US11667628B2, “Compounds for imaging tau proteins that accumulate in brain” (National Institutes for Quantum and Radiological Science …, priority 2012, dated 2023).
Some entries share one result that the patent states for a list of compounds.

test system: tau pathologies (NFTs, neuropil threads, plaque neurites, Pick bodies, tau aggregates) in AD and non-AD tauopathy brain; experiment: In vitro fluorescence microscopy of patients' brain sections; assay type: binding, human; conditions: PSP and CBD lesions

Compound | fluorescent labeling of tau pathologies in AD and non-AD tauopathy brain sections
CN(C)c1ccc(/C=C/C=C/c2nc3ccccc3s2)cc1 [PBB1, 4-((1E,3E)-4-(benz[d]thiazole-2-yl)buta-1,3-dienyl)-N,N-dimethylaniline] | strongly labeled
CNc1ccc(/C=C/C=C/c2nc3ccc(O)cc3s2)cc1 [PBB2, 2-((1E,3E)-4-(4-(methylamino)phenyl)buta-1,3-dienyl)benz [d]thiazole-6-ol] | strongly labeled
CNc1ccc(/C=C/C=C/c2nc3ccc(O)cc3s2)cn1 [PBB3, 2-((1E,3E)-4-(6-(methylamino)pyridine-3-yl)buta-1,3-dienyl) benz[d]thiazole-6-ol] | strongly labeled
CNc1ccc(/C=C/C=C/c2nc3cc(O)c(O)cc3s2)cn1 [PBB4, 2-((1E,3E)-4-(6-(methylamino)pyridine-3-yl)buta-1,3-dienyl) benz[d]thiazole-5,6-diol] | strongly labeled
CC[n+]1c(/C=C/C=C/c2ccc(N(C)C)cc2)sc2ccccc21 [PBB5, 2-((1E,3E)-4-(4-(dimethylamino)phenyl)buta-1,3-dienyl)-3-ethylbenzo[d] thiazole-3-ium] | strongly labeled
